The list shows a part of the results. These are raw signals, not scaled to a control.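 In the initial screen, polymyxin B was used at a concentration that permeabilizes Salmonella's outer membrane but not its inner membrane. Maximum growth was set by DMSO wells with or without polymyxin B. Since plates varied, data were ranked per plate, and compounds giving the lowest OD600 advanced as hits.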
Tested on: Salmonella enterica serovar Typhimurium SL1344
Experiment: bacterial growth OD600 after 18 h with compound and polymyxin B; higher = more bacterial growth (less inhibition)
Conditions: 50 µM, Mueller-Hinton broth

SMILES | bacterial growth OD600 (polymyxin B 0.75 µg/mL) | bacterial growth OD600 (polymyxin B 1 µg/mL)
Clc1ccc(N2CCC(C3CCN(Cc4cccnc4)CC3)C2)nc1 (stereo not given) | 0.733 | –
Cc1cccc(C(=O)N2CCC(N3CCC(C(=O)NCc4cccnc4)CC3)CC2)c1 | 0.763 | –
CCN(CC)c1ncccc1CNC(=O)Cn1cccn1 | – | 0.871
COc1cccc(OCc2nc(C(=O)N3CCCCO3)co2)c1 | – | 0.909
CCN1CCCC1CN(CC1CCN(CCOC)CC1)C(=O)CCOC (stereo not given) | – | 0.938
CC(Oc1ccccc1)C(=O)N1CCC(CCC(=O)NC2CC2)CC1 (stereo not given) | – | 0.848
COc1cccc(CN2C(=O)NC(C)(C3CCN(C(=O)c4sccc4Cl)CC3)C2=O)c1OC (stereo not given) | 0.886 | –
CC(C)(C)CC(=O)N1CCC(C2(c3ccccn3)NC(=O)N(CCc3cccs3)C2=O)CC1 (stereo not given) | 1 | –
CC1CCN(C(=O)C2CCCN(C3CCN(Cc4ccccc4)CC3)C2)CC1 (stereo not given) | 0.904 | –
O=C1N(Cc2cccc(Cl)c2)C[C@@H]2C[C@@H](c3ccc(F)c(F)c3)N3CCC[C@@]123 | 0.553 | –
COc1ccc(-c2noc(CN(C)CCOc3ccc(C)cc3)n2)c(OC)c1OC | – | 1.2
O=C(NC1CCCc2nc(N3CCC(CO)CC3)ncc21)C1CCCCC1 (stereo not given) | 0.829 | –
CSCCC(C)N1CCC(N2CCC(C(=O)NCc3cccnc3)CC2)CC1 (stereo not given) | – | 1.02
O=C(c1csnn1)N1CCc2[nH]nc(-c3ccccc3)c2C1 | 0.874 | –
CCC(C)CC(=O)N1CCC(C2(c3ccccn3)NC(=O)N(CCc3cccs3)C2=O)CC1 (stereo not given) | 0.899 | –
COCC(=O)N1CCOC(CC(c2ccccc2)c2ccccc2)C1 (stereo not given) | – | 0.804
CC(NC(=O)c1coc(Cn2cnc3ccccc32)n1)c1ccc2[nH]ccc2c1 (stereo not given) | – | 0.972
Cc1ccc(CCNC(=O)C2CCCN(C3CCN(C(=O)C4CC4)CC3)C2)cc1 (stereo not given) | 0.911 | –
COCCCN1C(=O)CC(CC(=O)N(C)Cc2nonc2C)(c2ccccc2Cl)C1=O (stereo not given) | 0.768 | –
CCOc1ccc(CN2CCN(Cc3ccc4nonc4c3)CC2CCO)cc1 (stereo not given) | – | 0.939

Looked up one by one from above, 2 records:
SMILES | bacterial growth OD600 (polymyxin B 0.75 µg/mL) | bacterial growth OD600 (polymyxin B 1 µg/mL)
CC(Oc1ccccc1)C(=O)N1CCC(CCC(=O)NC2CC2)CC1 (stereo not given) | – | 0.848
O=C(c1csnn1)N1CCc2[nH]nc(-c3ccccc3)c2C1 | 0.874 | –
